Measurements published in the supplement of paper PMC8728848.
This is one part of the list.

Tests used:
Assay in all cases: glycan array binding signal (z-score within array); higher = stronger binding
Settings in all cases: glycan notation: IUPAC condensed, linker removed
[1] = target: GlcNAc(b1-4)GlcNAc(b1-4)GlcNAc(b1-4)GlcNAc(b1-4)GlcNAc(b1-4)GlcNAc
Procedure, shortened: (§1)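 Negative Z-scores can be read as non-binding. The Z-score is calculated within each array and then averaged across arrays of one protein sequence at different concentrations or buffers and across linkers. Arrays, 3228 in all, were curated from the Consortium for Functional Glycomics database and kept only where the protein sequence was available.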

[2] = target: GlcNAc(b1-4)[GlcNAc(b1-6)]GalNAc
Procedure, shortened: as §1

[3] = target: GlcNAc(b1-6)Gal(b1-4)GlcNAc
Procedure, shortened: as §1

GlcNAc(b1-6)GalNAc = target: GlcNAc(b1-6)GalNAc
Procedure, shortened: as §1

[4] = target: GlcNAc6S(b1-3)Gal(b1-4)GlcNAc
Procedure, shortened: as §1

Kdn(a2-3)Gal(b1-3)GalNAc = target: Kdn(a2-3)Gal(b1-3)GalNAc
Procedure, shortened: as §1

Kdn(a2-3)Gal(b1-3)GlcNAc = target: Kdn(a2-3)Gal(b1-3)GlcNAc
Procedure, shortened: as §1

Kdn(a2-3)Gal(b1-4)Glc = target: Kdn(a2-3)Gal(b1-4)Glc
Procedure, shortened: as §1

Kdn(a2-3)Gal(b1-4)GlcNAc = target: Kdn(a2-3)Gal(b1-4)GlcNAc
Procedure, shortened: as §1

[5] = target: Kdn(a2-3)Gal(b1-4)[Fuc(a1-3)]GlcNAc
Procedure, shortened: as §1

Kdn(a2-6)Gal(b1-4)GlcNAc = target: Kdn(a2-6)Gal(b1-4)GlcNAc
Procedure, shortened: as §1

[6] = target: Man(a1-2)Man(a1-2)Man(a1-3)Man
Procedure, shortened: as §1

[7] = target: Man(a1-2)Man(a1-2)Man(a1-6)[Man(a1-3)]Man
Procedure, shortened: as §1

Man(a1-2)Man(a1-3)Man = target: Man(a1-2)Man(a1-3)Man
Procedure, shortened: as §1

[8] = target: Man(a1-2)Man(a1-3)[Man(a1-2)Man(a1-6)]Man
Procedure, shortened: as §1

[9] = target: Man(a1-2)Man(a1-3)[Man(a1-2)Man(a1-6)]Man(a1-6)[Man(a1-2)Man(a1-2)Man(a1-3)]Man
Procedure, shortened: as §1

[10] = target: Man(a1-2)Man(a1-3)[Man(a1-2)Man(a1-6)]Man(a1-6)[Man(a1-2)Man(a1-2)Man(a1-3)]Man(b1-4)GlcNAc(b1-4)GlcNAc
Procedure, shortened: as §1

[11] = target: Man(a1-2)Man(a1-3)[Man(a1-6)]Man(a1-6)[Man(a1-2)Man(a1-3)]Man(b1-4)GlcNAc(b1-4)GlcNAc
Procedure, shortened: as §1

[12] = target: Man(a1-2)Man(a1-6)[Man(a1-3)]Man(a1-6)[Man(a1-2)Man(a1-2)Man(a1-3)]Man
Procedure, shortened: as §1

[13] = target: Man(a1-2)Man(a1-6)[Man(a1-3)]Man(a1-6)[Man(a1-2)Man(a1-2)Man(a1-3)]Man(b1-4)GlcNAc(b1-4)GlcNAc
Procedure, shortened: as §1

Man(a1-3)[Man(a1-6)]Man = target: Man(a1-3)[Man(a1-6)]Man
Procedure, shortened: as §1

[14] = target: Man(a1-3)[Man(a1-6)]Man(a1-6)[Man(a1-2)Man(a1-3)]Man(b1-4)GlcNAc(b1-4)GlcNAc
Procedure, shortened: as §1

[15] = target: Man(a1-3)[Man(a1-6)]Man(a1-6)[Man(a1-3)]Man
Procedure, shortened: as §1

[16] = target: Man(a1-3)[Man(a1-6)]Man(a1-6)[Man(a1-3)]Man(b1-4)GlcNAc(b1-4)GlcNAc
Procedure, shortened: as §1

[17] = target: Man(a1-3)[Man(a1-6)]Man(b1-4)GlcNAc(b1-4)GlcNAc
Procedure, shortened: as §1

[18] = target: Man(a1-3)[Man(a1-6)]Man(b1-4)GlcNAc(b1-4)[Fuc(a1-6)]GlcNAc
Procedure, shortened: as §1

Man(a1-6)Man = target: Man(a1-6)Man
Procedure, shortened: as §1

Man(b1-4)GlcNAc = target: Man(b1-4)GlcNAc
Procedure, shortened: as §1

MurNAc(b1-4)GlcNAc = target: MurNAc(b1-4)GlcNAc
Procedure, shortened: as §1

Neu5Ac(a2-3)Gal = target: Neu5Ac(a2-3)Gal
Procedure, shortened: as §1

[19] = target: Neu5Ac(a2-3)Gal(b1-3)GalNAc
Procedure, shortened: as §1

[20] = target: Neu5Ac(a2-3)Gal(b1-3)GalNAc(b1-3)Gal(a1-4)Gal(b1-4)Glc
Procedure, shortened: as §1

[21] = target: Neu5Ac(a2-3)Gal(b1-3)GalNAc(b1-4)Gal(b1-4)Glc
Procedure, shortened: as §1

[22] = target: Neu5Ac(a2-3)Gal(b1-3)GalNAc(b1-4)[Neu5Ac(a2-3)]Gal(b1-4)Glc
Procedure, shortened: as §1

[23] = target: Neu5Ac(a2-3)Gal(b1-3)GalNAc(b1-4)[Neu5Ac(a2-8)Neu5Ac(a2-3)]Gal(b1-4)Glc
Procedure, shortened: as §1

[24] = target: Neu5Ac(a2-3)Gal(b1-3)GalNAc6S
Procedure, shortened: as §1

[25] = target: Neu5Ac(a2-3)Gal(b1-3)GlcNAc
Procedure, shortened: as §1

[26] = target: Neu5Ac(a2-3)Gal(b1-3)GlcNAc(b1-2)Man
Procedure, shortened: as §1

[27] = target: Neu5Ac(a2-3)Gal(b1-3)GlcNAc(b1-2)Man(a1-3)[GlcNAc(b1-4)][Neu5Ac(a2-3)Gal(b1-3)GlcNAc(b1-2)Man(a1-6)]Man(b1-4)GlcNAc(b1-4)GlcNAc
Procedure, shortened: as §1

[28] = target: Neu5Ac(a2-3)Gal(b1-3)GlcNAc(b1-2)Man(a1-3)[Neu5Ac(a2-3)Gal(b1-3)GlcNAc(b1-2)Man(a1-6)]Man(b1-4)GlcNAc(b1-4)GlcNAc
Procedure, shortened: as §1

[29] = target: Neu5Ac(a2-3)Gal(b1-3)GlcNAc(b1-2)[Neu5Ac(a2-3)Gal(b1-3)GlcNAc(b1-4)]Man(a1-6)[Neu5Ac(a2-3)Gal(b1-3)GlcNAc(b1-2)Man(a1-3)]Man(b1-4)GlcNAc(b1-4)GlcNAc
Procedure, shortened: as §1

[30] = target: Neu5Ac(a2-3)Gal(b1-3)GlcNAc(b1-3)Gal(b1-3)GlcNAc
Procedure, shortened: as §1

[31] = target: Neu5Ac(a2-3)Gal(b1-3)GlcNAc(b1-3)Gal(b1-4)GlcNAc
Procedure, shortened: as §1

[32] = target: Neu5Ac(a2-3)Gal(b1-3)GlcNAc(b1-3)GalNAc
Procedure, shortened: as §1

[33] = target: Neu5Ac(a2-3)Gal(b1-3)GlcNAc(b1-6)GalNAc
Procedure, shortened: as §1

B1: Pwp1 (Candida glabrata) (protein)
chain: MGSSHHHHHHSSGLVPRGSHMASANPISITNVCQFPDNWARTAGFQATTVRLGLTIASNTYKELLNYPGLFNFATQKATVTQPNFSISGFPFFTGLYGLTVWPINLLVELQGYFVPPESGNYTFTLQGSDDAAILFFANPSTFACGSQNDWPQPREADITVTDTLVPSRTLYLVKGVAYPIRIAYYNGSGDGKLNVSFKDPSGTTHTDWKGYVWQYSNTCSTCTYT
glycan array binding signal (z-score) [1]: -1.01
glycan array binding signal (z-score) [2]: -0.159
glycan array binding signal (z-score) [3]: -0.029
glycan array binding signal (z-score) (GlcNAc(b1-6)GalNAc): 0.644
glycan array binding signal (z-score) [4]: -0.576
glycan array binding signal (z-score) (Kdn(a2-3)Gal(b1-3)GalNAc): -2.05
glycan array binding signal (z-score) (Kdn(a2-3)Gal(b1-3)GlcNAc): 0.17
glycan array binding signal (z-score) (Kdn(a2-3)Gal(b1-4)Glc): -1.05
glycan array binding signal (z-score) (Kdn(a2-3)Gal(b1-4)GlcNAc): -1.18
glycan array binding signal (z-score) [5]: 0.445
glycan array binding signal (z-score) (Kdn(a2-6)Gal(b1-4)GlcNAc): 1.67
glycan array binding signal (z-score) [6]: 0.737
glycan array binding signal (z-score) [7]: 0.183
glycan array binding signal (z-score) (Man(a1-2)Man(a1-3)Man): 0.697
glycan array binding signal (z-score) [8]: 0.819
glycan array binding signal (z-score) [9]: 0.145
glycan array binding signal (z-score) [10]: 0.286
glycan array binding signal (z-score) [11]: 0.458
glycan array binding signal (z-score) [12]: 0.431
glycan array binding signal (z-score) [13]: -1.22
glycan array binding signal (z-score) (Man(a1-3)[Man(a1-6)]Man): -1.51
glycan array binding signal (z-score) [14]: 1.55
glycan array binding signal (z-score) [15]: -0.487
glycan array binding signal (z-score) [16]: -1.33
glycan array binding signal (z-score) [17]: 0.507
glycan array binding signal (z-score) [18]: 0.981
glycan array binding signal (z-score) (Man(a1-6)Man): -1.48
glycan array binding signal (z-score) (Man(b1-4)GlcNAc): -1.21
glycan array binding signal (z-score) (MurNAc(b1-4)GlcNAc): -1.73
glycan array binding signal (z-score) (Neu5Ac(a2-3)Gal): 0.738
glycan array binding signal (z-score) [19]: 0.681
glycan array binding signal (z-score) [20]: 1.18
glycan array binding signal (z-score) [21]: 1.46
glycan array binding signal (z-score) [22]: -0.876
glycan array binding signal (z-score) [23]: 0.23
glycan array binding signal (z-score) [24]: 1.15
glycan array binding signal (z-score) [25]: -0.533
glycan array binding signal (z-score) [26]: 0.584
glycan array binding signal (z-score) [27]: 0.597
glycan array binding signal (z-score) [28]: 1.89
glycan array binding signal (z-score) [29]: 0.101
glycan array binding signal (z-score) [30]: -0.231
glycan array binding signal (z-score) [31]: -1.22
glycan array binding signal (z-score) [32]: 0.585
glycan array binding signal (z-score) [33]: 0.849
